This passage reports binding results from article PMC8529007.

Amino acid sequences for entries named in this document (tags omitted). Residues count along the entry.
UniProt P32592, residues 23-769: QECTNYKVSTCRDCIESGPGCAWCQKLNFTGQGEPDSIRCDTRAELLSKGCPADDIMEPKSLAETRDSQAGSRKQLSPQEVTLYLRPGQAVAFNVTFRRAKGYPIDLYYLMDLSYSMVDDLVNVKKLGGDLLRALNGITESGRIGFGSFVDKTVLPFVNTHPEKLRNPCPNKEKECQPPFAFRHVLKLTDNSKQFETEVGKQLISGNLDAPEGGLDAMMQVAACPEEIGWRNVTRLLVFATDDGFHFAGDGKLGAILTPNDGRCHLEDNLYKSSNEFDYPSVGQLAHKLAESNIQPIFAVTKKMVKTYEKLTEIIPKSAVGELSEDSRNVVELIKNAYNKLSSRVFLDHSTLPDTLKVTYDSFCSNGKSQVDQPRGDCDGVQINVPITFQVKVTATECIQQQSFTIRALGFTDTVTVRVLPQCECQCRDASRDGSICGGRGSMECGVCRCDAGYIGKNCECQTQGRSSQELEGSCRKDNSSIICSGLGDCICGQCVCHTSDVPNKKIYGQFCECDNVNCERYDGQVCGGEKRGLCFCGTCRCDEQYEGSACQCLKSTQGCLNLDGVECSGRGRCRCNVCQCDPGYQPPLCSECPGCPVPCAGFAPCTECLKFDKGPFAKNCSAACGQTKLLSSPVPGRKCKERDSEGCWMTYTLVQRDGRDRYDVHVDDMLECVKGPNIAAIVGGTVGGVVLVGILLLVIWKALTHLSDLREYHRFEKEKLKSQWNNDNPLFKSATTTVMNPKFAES

Results are given in words; binding and its absence hold for the method and conditions named. Binding seen in cells or lysates may run through a third protein. Here binding means that the protein was enriched with, or labelled near, the bait; the list need not be complete.

Assay [1] concerns the target CD18 (integrin β2), dairy cow neutrophils (bovine (endogenous in dairy cow neutrophils)) (UniProt P32592). Kind of assay: affinity purification with mass spectrometry; endogenous CD11b or CD18 immunoprecipitated with a Pierce Crosslink IP kit; about 30 ug of IP complexes analysed by shotgun MS/MS (MASCOT).
Assay [2] concerns the target CD11b (integrin αM), dairy cow neutrophils (bovine (endogenous in dairy cow neutrophils)). The assay is described as above.

Regarding “Heat shock cognate 71 kDa protein (Hsc70), P19120 (from UniProt P19120 1-650)”, the binding result in assay [1] is given as “binds”.

B1: tripartite motif-containing protein 21 (TRIM21), Q7YRV4 (protein, UniProt Q7YRV4 1-469)
chain: MASAVPLTMMWEEVTCSICLDPMVEPMSIECGHSFCQECISEVGKEGGSVCPVCRRHFLLQNLRPNRQVANMVDNLRKISQGAKESPHGELCVVHREKIHLFCEEDGKALCWVCSQSQKHRDHPMVPIEEAAQEYQEKLQVALNKLRHKQELAEKLELDIAMKKASWKGKVEAHKLRIHEEFVRQKNFLAEEEQKQLQKLEEEERQQLRTLGDTEARLAQQIQALQELIAELERRRRGSALELLQEVKSVLERSESWNLKELDVASTDLRNVFYVPGIKKMLRTCGVHITLDPQTANPWLILSENRRQVRLANTRQEVPENEERFDSYPMVLGAQRFDSGKVYWEVDVTGKEAWDLGVCRDNVRRKGQFLLNSDTGFWIIWLWNKQKYEAGTCPQTPLHLQVPPNRIGIFLDYEASTVSFYNITDHASLIYTFSECAFAGPLRPFFNPGFNDRGTNSAPLILCPLKTGW
As for B1, the binding entry in assay [2] and in assay [1] was “binds” throughout.
